Data reported in US11357742B2, “Methods for treating cancer” (X4 Pharmaceuticals, Inc., priority 2015, dated 2022).

Test system: 786-0 and A498 RCC xenografts
Experiment: Murine models with human RCC cell line xenografts (tumor size, IHC, IF, flow cytometry)
Format: in vivo, mice
Conditions: 786-0 and A498 xenografts
Protocol: With each of the human cell lines, 1×10^7 tumor cells were implanted subcutaneously in the flanks of 36 nude/beige mice and tumors allowed to grow to roughly 7 mm in diameter. […] Therefore, on day 7, the mice were sacrificed and the tumors were measured and immediately excised and divided into three parts. One part of each tumor was paraffin-embedded for dual color immunofluorescence. Another part was mechanically disaggregated and treated with collagenase/DNAse to generate a single cell suspension for flow cytometry. The third part was frozen for future pharmacokinetic analysis. Microscope slides were made from the paraffin-embedded tumor tissue, which were stained with antibodies against CD11b, Gr-1, and FAP. The number of infiltrating CD11b+/Gr-1+ MDSC and FAP+ fibroblasts present in the tumor tissue was then determined by immunofluorescence (IF) as previously described (1).
The disaggregated tumor specimens were analyzed for CD11b+/Gr-1+ MDSC and FAP+ fibroblasts by flow cytometry. The fraction of both populations expressing CXCR4 were also determined. […] One part was disaggregated into single cell suspensions and analyzed by flow cytometry as above for MDSC. […] Finally, a bone marrow (BM) sample was generated by extruding marrow from an excised femur with a syringe filled with saline and analyzed by flow cytometry for MDSC.

SMILES: CNC(=O)c1ccccc1Sc1ccc2c(/C=C/c3ccccn3)n[nH]c2c1 [axitinib, N-methyl-2-[3-((E)-2-pyridin-2-yl-vinyl)-1H-indazol-6-ylsulfanyl]-benzamide]
- Ki-67 positive tumor cells (IHC staining): increase
